The text below walks through data of the supplement of paper PMC10849652.

Protein sequences, listed by entry. Tags and fused reporters are not part of them. Lines headed by an entry give the natural chain unless they say otherwise; changes in a name come on top.
UniProt Q02978: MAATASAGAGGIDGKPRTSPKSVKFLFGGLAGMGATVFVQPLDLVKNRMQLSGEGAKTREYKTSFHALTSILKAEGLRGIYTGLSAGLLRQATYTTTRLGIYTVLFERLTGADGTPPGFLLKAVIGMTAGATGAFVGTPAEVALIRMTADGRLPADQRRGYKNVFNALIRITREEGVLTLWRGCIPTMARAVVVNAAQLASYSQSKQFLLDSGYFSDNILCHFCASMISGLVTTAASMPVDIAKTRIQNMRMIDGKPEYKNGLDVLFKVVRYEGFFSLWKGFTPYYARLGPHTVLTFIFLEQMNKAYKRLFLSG
UniProt Q9BQT8: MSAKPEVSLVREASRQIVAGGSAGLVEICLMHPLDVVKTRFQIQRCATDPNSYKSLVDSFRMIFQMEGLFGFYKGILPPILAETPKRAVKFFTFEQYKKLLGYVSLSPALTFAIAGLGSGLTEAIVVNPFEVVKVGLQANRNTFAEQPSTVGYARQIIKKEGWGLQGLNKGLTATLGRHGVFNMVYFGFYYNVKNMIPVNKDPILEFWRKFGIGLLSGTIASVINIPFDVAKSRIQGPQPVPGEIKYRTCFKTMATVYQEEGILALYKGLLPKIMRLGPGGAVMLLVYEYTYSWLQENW
UniProt Q9UBX3: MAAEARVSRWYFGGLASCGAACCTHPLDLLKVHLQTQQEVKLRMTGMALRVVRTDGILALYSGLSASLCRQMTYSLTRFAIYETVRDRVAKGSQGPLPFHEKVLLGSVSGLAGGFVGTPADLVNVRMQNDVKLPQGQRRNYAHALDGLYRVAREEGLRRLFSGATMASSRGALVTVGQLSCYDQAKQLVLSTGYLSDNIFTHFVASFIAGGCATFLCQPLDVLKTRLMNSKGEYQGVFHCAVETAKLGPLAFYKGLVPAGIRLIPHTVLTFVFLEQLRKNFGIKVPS
UniProt Q99808: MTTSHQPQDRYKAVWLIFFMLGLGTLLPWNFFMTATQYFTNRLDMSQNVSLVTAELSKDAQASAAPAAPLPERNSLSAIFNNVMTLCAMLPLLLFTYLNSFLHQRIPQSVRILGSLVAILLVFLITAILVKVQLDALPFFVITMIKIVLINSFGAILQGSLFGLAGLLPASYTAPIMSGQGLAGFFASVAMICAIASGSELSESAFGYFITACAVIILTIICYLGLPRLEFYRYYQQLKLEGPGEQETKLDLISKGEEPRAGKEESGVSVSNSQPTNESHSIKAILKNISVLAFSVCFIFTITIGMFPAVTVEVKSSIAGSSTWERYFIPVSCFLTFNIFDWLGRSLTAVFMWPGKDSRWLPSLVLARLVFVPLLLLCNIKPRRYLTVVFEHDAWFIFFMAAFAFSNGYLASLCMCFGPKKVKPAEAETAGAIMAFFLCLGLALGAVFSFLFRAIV
UniProt O43772: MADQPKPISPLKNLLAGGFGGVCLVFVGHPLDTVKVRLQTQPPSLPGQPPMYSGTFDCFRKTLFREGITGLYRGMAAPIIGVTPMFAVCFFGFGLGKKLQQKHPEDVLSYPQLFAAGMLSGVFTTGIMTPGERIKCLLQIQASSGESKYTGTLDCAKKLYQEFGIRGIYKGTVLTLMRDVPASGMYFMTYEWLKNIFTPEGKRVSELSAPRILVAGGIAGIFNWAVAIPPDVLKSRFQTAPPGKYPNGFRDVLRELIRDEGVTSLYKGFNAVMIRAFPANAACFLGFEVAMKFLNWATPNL
UniProt Q08357: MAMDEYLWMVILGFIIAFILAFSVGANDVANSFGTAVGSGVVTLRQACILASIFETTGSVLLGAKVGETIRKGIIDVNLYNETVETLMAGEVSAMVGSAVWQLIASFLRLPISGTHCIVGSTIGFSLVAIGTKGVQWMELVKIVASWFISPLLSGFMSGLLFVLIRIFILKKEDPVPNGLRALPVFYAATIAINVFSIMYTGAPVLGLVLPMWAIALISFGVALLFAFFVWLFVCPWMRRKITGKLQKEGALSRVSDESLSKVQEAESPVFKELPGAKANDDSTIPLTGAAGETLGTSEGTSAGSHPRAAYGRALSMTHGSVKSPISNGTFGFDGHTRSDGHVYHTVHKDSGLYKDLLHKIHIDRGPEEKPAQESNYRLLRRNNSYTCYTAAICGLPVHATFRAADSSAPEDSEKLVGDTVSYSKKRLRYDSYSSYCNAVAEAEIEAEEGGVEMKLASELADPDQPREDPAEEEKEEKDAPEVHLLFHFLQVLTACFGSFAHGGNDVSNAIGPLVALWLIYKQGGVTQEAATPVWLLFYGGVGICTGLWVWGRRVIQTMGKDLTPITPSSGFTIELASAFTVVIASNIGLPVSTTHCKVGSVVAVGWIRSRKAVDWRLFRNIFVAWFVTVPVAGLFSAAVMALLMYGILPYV
UniProt Q00325: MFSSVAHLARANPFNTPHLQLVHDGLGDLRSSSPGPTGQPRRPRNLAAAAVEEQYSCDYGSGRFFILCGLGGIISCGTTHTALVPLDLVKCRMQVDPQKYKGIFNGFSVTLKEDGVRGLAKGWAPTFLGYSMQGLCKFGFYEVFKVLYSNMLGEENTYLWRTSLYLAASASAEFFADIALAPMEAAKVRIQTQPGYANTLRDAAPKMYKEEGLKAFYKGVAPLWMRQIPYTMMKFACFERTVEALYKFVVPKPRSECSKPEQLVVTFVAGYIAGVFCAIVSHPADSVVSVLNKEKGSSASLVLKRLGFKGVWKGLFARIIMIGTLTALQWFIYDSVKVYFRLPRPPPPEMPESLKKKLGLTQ
UniProt Q9H1N7: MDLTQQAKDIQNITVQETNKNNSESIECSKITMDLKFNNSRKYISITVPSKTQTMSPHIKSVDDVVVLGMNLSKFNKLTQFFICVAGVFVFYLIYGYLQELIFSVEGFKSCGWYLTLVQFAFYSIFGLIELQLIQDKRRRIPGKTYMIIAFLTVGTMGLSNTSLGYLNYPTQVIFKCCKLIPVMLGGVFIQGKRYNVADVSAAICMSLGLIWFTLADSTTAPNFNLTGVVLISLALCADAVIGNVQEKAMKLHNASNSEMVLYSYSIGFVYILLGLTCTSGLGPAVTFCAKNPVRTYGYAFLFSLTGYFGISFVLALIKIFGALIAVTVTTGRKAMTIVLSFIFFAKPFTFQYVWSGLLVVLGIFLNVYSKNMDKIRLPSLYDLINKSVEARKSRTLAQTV
UniProt Q8TBP6: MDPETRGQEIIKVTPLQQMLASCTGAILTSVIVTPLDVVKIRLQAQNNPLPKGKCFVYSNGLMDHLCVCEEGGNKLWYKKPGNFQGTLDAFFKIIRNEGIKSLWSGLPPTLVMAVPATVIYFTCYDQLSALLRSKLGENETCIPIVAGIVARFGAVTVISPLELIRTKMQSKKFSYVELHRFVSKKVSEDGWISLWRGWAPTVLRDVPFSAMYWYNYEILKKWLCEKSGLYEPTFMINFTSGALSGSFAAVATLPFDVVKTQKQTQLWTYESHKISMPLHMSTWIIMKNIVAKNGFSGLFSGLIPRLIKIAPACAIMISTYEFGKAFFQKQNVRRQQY
UniProt P53007, whole entry, looked up: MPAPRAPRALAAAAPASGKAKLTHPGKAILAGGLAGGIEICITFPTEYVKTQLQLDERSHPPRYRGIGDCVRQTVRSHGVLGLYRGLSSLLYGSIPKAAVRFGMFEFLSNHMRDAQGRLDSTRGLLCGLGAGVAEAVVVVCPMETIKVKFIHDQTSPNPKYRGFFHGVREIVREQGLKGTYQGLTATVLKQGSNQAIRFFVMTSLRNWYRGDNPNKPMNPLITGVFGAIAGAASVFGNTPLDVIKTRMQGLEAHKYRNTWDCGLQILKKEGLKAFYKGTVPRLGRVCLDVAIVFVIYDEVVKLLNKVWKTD
UniProt Q9HBR0: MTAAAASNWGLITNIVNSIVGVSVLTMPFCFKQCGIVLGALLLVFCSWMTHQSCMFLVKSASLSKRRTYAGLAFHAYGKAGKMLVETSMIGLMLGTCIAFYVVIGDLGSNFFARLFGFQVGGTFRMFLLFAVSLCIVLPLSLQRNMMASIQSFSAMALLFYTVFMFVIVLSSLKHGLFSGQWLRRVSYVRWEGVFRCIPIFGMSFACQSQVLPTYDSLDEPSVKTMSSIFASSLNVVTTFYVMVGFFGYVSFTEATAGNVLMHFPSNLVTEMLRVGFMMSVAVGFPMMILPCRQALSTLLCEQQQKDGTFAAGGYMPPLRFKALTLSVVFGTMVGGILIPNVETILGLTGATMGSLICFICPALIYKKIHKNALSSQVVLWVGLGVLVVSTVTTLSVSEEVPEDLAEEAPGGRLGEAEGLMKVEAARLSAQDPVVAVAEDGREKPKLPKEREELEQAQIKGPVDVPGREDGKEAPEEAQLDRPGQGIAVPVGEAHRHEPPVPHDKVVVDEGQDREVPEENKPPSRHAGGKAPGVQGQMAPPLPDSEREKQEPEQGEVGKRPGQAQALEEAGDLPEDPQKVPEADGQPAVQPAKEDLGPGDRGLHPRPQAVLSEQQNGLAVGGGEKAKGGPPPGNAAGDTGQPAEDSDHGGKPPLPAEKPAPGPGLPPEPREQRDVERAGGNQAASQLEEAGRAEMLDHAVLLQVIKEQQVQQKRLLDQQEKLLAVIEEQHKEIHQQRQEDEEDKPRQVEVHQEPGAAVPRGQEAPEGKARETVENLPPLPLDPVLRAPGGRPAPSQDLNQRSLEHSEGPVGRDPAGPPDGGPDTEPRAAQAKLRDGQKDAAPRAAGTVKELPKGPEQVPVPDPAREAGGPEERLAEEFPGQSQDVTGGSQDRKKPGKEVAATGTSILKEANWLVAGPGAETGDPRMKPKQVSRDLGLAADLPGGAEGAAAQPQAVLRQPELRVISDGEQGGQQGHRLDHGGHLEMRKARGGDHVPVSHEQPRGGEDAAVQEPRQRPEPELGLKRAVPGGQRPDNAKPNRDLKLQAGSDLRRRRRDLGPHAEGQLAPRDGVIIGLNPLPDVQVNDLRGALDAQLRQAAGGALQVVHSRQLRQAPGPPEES
UniProt P53794: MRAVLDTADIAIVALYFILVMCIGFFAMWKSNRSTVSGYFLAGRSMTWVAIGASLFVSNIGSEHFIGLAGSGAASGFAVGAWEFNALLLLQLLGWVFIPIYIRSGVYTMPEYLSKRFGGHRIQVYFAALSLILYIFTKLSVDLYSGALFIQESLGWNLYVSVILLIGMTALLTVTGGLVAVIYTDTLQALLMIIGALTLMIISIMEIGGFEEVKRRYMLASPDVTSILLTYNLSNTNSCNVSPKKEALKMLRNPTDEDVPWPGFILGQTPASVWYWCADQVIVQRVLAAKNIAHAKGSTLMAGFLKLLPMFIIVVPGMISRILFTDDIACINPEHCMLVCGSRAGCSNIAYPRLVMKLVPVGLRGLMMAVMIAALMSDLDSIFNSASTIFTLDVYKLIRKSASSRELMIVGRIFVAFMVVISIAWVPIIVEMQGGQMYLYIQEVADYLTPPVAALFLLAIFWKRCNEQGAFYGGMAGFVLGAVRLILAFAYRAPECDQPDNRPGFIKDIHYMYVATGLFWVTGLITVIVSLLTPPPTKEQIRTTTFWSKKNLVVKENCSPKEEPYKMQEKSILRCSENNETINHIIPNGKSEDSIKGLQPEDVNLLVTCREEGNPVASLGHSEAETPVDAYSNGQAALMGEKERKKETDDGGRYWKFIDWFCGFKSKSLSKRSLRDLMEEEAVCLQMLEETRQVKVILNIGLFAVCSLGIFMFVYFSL
UniProt Q9Y289: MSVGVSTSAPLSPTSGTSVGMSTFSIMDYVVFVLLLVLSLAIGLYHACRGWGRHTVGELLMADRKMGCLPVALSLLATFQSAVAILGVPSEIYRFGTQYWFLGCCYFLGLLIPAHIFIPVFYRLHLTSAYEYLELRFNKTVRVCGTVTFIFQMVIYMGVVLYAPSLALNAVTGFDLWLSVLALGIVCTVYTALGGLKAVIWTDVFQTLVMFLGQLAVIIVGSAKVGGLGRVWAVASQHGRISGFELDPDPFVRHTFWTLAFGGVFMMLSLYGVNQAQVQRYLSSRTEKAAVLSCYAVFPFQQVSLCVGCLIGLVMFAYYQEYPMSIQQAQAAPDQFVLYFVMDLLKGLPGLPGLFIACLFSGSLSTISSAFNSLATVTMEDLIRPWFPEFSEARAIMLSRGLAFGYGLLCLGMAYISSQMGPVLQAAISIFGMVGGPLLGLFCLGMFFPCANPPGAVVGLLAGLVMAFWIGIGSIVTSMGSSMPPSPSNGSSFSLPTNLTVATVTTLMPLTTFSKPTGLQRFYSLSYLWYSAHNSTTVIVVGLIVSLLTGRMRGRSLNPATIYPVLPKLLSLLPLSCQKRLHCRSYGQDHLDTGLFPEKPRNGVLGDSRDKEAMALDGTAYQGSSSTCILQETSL
UniProt Q9Y619: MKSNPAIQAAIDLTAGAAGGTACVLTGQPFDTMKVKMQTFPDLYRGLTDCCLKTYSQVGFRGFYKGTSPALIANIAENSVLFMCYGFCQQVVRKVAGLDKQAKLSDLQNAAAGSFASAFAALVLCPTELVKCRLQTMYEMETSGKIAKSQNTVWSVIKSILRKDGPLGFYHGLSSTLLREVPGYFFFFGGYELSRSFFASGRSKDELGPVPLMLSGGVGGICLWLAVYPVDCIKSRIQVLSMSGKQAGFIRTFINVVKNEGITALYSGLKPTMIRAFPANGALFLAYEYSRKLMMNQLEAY

The other results are listed elsewhere or left out.

Compound in the first assay: CC(C)N(C[C@H]1O[C@@H](n2cnc3c(N)ncnc32)[C@H](O)[C@@H]1O)[C@H]1C[C@@H](CCc2nc3cc(C(C)(C)C)ccc3[nH]2)C1 [pinometostat]
Put plainly: log2 fold change, soluble protein after heating vs DMSO (PISA); higher = thermal stabilisation; K562 cells, 10 uM, 30 min; active = over 0.2 and 3.5 SD of the protein, either way, in both replicates (recomputed). An outline of the steps:
(§1)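 For each measurement, 10 μM compound was applied for 30 min to K562 cells at 2×10^6 cells/mL. Aliquots were heated for 3 min across 48°C-58°C, pooled, and extracted in PBS with 0.5% NP-40 at 4°C; the supernatant after 21,000xg for 90 min was soluble protein. This was quantified by TMTpro 16plex LC-MS/MS with channel sums equalised, and thermal stability was reported relative to control samples from duplicates, on a log2 fold-change scale.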
Regarding SLC25A33 (UniProt Q9BSK2), the log2 fold change is inactive: -0.007.

SLC4A7 isoform 7 (UniProt Q9Y6M7): the log2 fold change was inactive: 0.158. Same read-out and setting: under SLC25A12 (UniProt O75746) stands inactive: -0.015; under SLC12A6 isoform 2 (UniProt Q9UHW9), inactive: -0.001.

In the case of SLC39A7 (UniProt Q92504), the log2 fold change is inactive: -0.164. Still for that read-out and setting: under SLC43A3 isoform 2 (UniProt Q8NBI5) stands inactive: -0.023; under SLC37A4 isoform 2 (UniProt O43826), inactive: -0.009. Still for that read-out and setting: under SLC25A11 (UniProt Q02978) stands inactive: -0.006; under SLC25A21 (UniProt Q9BQT8), inactive: -0.023; under SLC25A10 isoform 2 (UniProt Q9UBX3), inactive: -0.015. Same read-out and setting: under SLC25A19 (UniProt Q9HC21) stands inactive: -0.031; under SLC2A1 (UniProt P11166), inactive: -0.024; under SLC29A1 isoform 2 (UniProt Q99808), inactive: -0.084. Regarding SLC30A9 (UniProt Q6PML9), the log2 fold change was inactive: -0.04.

In the case of SLC25A20 (UniProt O43772), the log2 fold change is inactive: -0.037.

Take SLC39A10 (UniProt Q9ULF5): the log2 fold change is inactive: -0.007. On the same count and under the same terms, under SLC20A2 (UniProt Q08357) stands inactive: 0.042; under SLC1A4 (UniProt P43007), inactive: 0.009; under SLC30A5 (UniProt Q8TAD4), inactive: 0.005.

For SLC25A3 isoform 2 (UniProt Q00325), the log2 fold change is inactive: -0.015. Same read-out and setting: the same measure for SLC7A5 (UniProt Q01650): inactive: -0.087. The same measure, in the same setting: the same measure for SLC35B3 (UniProt Q9H1N7): inactive: 0.031; for SLC7A1 (UniProt P30825): inactive: -0.022; for SLC25A40 (UniProt Q8TBP6): inactive: -0.014. Take SLC2A3 (UniProt P11169): the log2 fold change was inactive: -0.028. Consider SLC26A6 (UniProt Q9BXS9), for which the log2 fold change is inactive: 0.003. Still for that read-out and setting: the same measure for SLC25A17 (UniProt O43808): inactive: -0.026; for SLC25A32 (UniProt Q9H2D1): inactive: -0.035; for SLC12A9 (UniProt Q9BXP2): inactive: -0.018. Still for that read-out and setting: under SLC1A5 (UniProt Q15758) stands inactive: -0.034; under SLC6A8 (UniProt P48029), inactive: -0.009; under SLC3A2 isoform 3 (UniProt P08195), inactive: -0.054. Same read-out and setting: the same measure for SLC25A1 (UniProt P53007): inactive: -0.017. As for SLC20A1 (UniProt Q8WUM9), the log2 fold change is inactive: 0.022.

Consider SLC12A2 (UniProt P55011), for which the log2 fold change is inactive: -0.01.

SLC38A10 (UniProt Q9HBR0): the log2 fold change was inactive: -0.026. On the same count and under the same terms, under SLC5A3 (UniProt P53794) stands inactive: -0.037.

Consider SLC5A6 (UniProt Q9Y289), for which the log2 fold change is inactive: -0.018. Still for that read-out and setting: the same measure for SLC25A15 (UniProt Q9Y619): inactive: -0.011.

Compound in another assay: CC1=C(C(CC(=O)N1)C2=CC=C(C=C2)C(F)(F)F)C(=O)NC3=C(C=C4C(=C3)C=NN4)F
The description is as above. A digest of the protocol: as §1
Turning to SLC25A33 (UniProt Q9BSK2), the log2 fold change is inactive: 0.03. Still for that read-out and setting: under SLC4A7 isoform 7 (UniProt Q9Y6M7) stands inactive: -0.032. The same measure, in the same setting: the same measure for SLC25A12 (UniProt O75746): inactive: 0.012; for SLC12A6 isoform 2 (UniProt Q9UHW9): inactive: -0.018; for SLC39A7 (UniProt Q92504): inactive: -0.013. The same measure, in the same setting: the same measure for SLC43A3 isoform 2 (UniProt Q8NBI5): inactive: 0.011; for SLC37A4 isoform 2 (UniProt O43826): inactive: -0.029. For SLC25A11 (UniProt Q02978), the log2 fold change is inactive: -0.011. The same measure, in the same setting: the same measure for SLC25A21 (UniProt Q9BQT8): inactive: 0.014. Same read-out and setting: under SLC25A10 isoform 2 (UniProt Q9UBX3) stands inactive: -0.002; under SLC25A19 (UniProt Q9HC21), inactive: 0.004; under SLC2A1 (UniProt P11166), inactive: -0.013. SLC29A1 isoform 2 (UniProt Q99808): the log2 fold change is inactive: -0.013.

For SLC30A9 (UniProt Q6PML9), the log2 fold change is inactive: -0.033. The same measure, in the same setting: the same measure for SLC25A20 (UniProt O43772): inactive: 0.019; for SLC39A10 (UniProt Q9ULF5): inactive: -0.012; for SLC20A2 (UniProt Q08357): inactive: -0.066.

For SLC1A4 (UniProt P43007), the log2 fold change is inactive: 0.011. SLC30A5 (UniProt Q8TAD4): the log2 fold change is inactive: -0.033. Still for that read-out and setting: the same measure for SLC25A3 isoform 2 (UniProt Q00325): inactive: 0.009; for SLC7A5 (UniProt Q01650): inactive: -0.103. On the same count and under the same terms, the same measure for SLC35B3 (UniProt Q9H1N7): inactive: 0.082. The same measure, in the same setting: the same measure for SLC7A1 (UniProt P30825): inactive: 0.019; for SLC25A40 (UniProt Q8TBP6): inactive: -0.004; for SLC2A3 (UniProt P11169): inactive: 0.027.

For the target SLC26A6 (UniProt Q9BXS9), the log2 fold change is inactive: 0.039. On the same count and under the same terms, the same measure for SLC25A17 (UniProt O43808): inactive: -0.053; for SLC25A32 (UniProt Q9H2D1): inactive: -0.021; for SLC6A8 (UniProt P48029): inactive: 0.17. Same read-out and setting: under SLC3A2 isoform 3 (UniProt P08195) stands inactive: -0.024; under SLC25A1 (UniProt P53007), inactive: 0.032. On the same count and under the same terms, the same measure for SLC20A1 (UniProt Q8WUM9): inactive: 0.022; for SLC12A2 (UniProt P55011): inactive: 0.008.

On to SLC38A10 (UniProt Q9HBR0), for which the log2 fold change is inactive: 0.025.

With SLC5A3 (UniProt P53794), the log2 fold change is inactive: -0.017. The same measure, in the same setting: the same measure for SLC5A6 (UniProt Q9Y289): inactive: 0.002; for SLC25A15 (UniProt Q9Y619): inactive: -0.003.
